Results as given in patent publication EP0162695A1, “6-Oxygenated-1,3,,4,5-Tetrahydrobenz(cd)indol-4-amines” (SMITHKLINE BEECHAM CORPORATION, priority 1984, dated 1985).
Where a name gives a salt, the structure may show the parent alone. Some entries share one result that the patent states for a list of compounds. Some ranges recur; such a range may be that of the whole group of compounds.

Target: 5-HT1 receptor
Test: displacement of [3H]5-HT binding from rat frontal cerebral cortex
Settings: read-out: IC50 (concentration required to displace 50% of [3H]5-HT binding from rat frontal cerebral cortex)

Structure (SMILES)	IC50 [nM]
NC1Cc2c[nH]c3ccc(O)c(c23)C1 (stereo not drawn) [compound 2, 6-hydroxy-1,3,4,5-tetrahydro-benz[cd]indol-4-amine oxalate]	40 to 70
COc1ccc2[nH]cc3c2c1CC(N(C)C)C3 (stereo not drawn) [example 3, N,N-dimethyl-6-methoxy-1,3,4,5-tetrahydrobenz[cd]indol-4-amine oxalate]	40 to 70
COc1ccc2[nH]cc3c2c1CC(N)C3 (stereo not drawn) [example 1, 6-methoxy-l,3,4,5-tetrahydrobenz[cd]indole-4-amine hemioxalate]	40 to 70
